Reference: patent US20050181476A1
Results are given in words; binding and its absence hold for the method and conditions named. Binding seen in cells or lysates may run through a third protein. Some binding calls cover weakened binding; strength is not graded here.

Amino acid sequences for entries named in this document (tags omitted). A change or cut given only in a name is not applied to a line headed by its entry.
UniProt P51617: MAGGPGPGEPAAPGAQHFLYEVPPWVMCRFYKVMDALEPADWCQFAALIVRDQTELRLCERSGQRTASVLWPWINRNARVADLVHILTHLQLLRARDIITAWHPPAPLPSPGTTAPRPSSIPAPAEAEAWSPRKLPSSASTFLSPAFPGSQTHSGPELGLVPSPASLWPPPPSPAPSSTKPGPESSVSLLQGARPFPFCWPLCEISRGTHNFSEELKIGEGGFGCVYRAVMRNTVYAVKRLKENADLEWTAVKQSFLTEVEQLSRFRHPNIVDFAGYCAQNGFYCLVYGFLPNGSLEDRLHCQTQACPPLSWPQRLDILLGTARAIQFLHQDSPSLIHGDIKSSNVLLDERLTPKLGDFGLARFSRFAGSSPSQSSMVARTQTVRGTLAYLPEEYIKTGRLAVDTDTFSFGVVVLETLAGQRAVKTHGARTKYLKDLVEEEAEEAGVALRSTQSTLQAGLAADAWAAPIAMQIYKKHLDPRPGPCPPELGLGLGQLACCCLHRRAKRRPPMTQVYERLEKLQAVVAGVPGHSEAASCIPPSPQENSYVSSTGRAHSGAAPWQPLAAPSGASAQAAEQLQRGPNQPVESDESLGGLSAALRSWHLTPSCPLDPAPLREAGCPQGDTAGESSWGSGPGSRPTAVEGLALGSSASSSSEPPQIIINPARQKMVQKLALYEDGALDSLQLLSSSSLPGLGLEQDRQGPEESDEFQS
UniProt P22366: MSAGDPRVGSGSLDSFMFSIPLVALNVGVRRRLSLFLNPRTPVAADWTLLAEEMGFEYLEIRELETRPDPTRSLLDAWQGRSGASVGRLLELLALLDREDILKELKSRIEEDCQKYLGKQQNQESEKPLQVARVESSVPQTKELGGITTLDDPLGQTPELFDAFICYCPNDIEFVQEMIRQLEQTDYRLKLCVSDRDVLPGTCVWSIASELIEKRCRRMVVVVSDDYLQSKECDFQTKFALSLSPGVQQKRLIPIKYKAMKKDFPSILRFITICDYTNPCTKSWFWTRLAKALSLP

Target: IRAK-1KD (IRAK-1D340N) (UniProt P51617)
Experiment: co-immunoprecipitation, HEK293T

- binding: binds
Substance: E-MyD88S (from UniProt P22366 1-296)
